This is one part of the list.
How the values were obtained:
Assay in all cases: log2 fold change, soluble protein after heating vs DMSO (PISA); higher = thermal stabilisation; K562 lysate, 10 uM; active = over 0.2 and 3.5 SD of the protein, either way, in both replicates (recomputed)
lapatinib = compound: CS(=O)(=O)CCNCc1ccc(-c2ccc3ncnc(Nc4ccc(OCc5cccc(F)c5)c(Cl)c4)c3c2)o1 [lapatinib]
Method in brief: (§1)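 To prepare the extract, K562 pellets were dounce-homogenised in PBS pH 7.4 with 1 mM MgCl2, giving crude material at 1 mg/mL protein. This was treated with 10 μM compound for 30 min, then heated in aliquots for 3 min over 48°C-58°C before pooling and addition of NP-40 to 0.5% at 4°C. Centrifugation at 21,000xg for 90 min left soluble protein in the supernatant, which TMTpro 16plex LC-MS/MS quantified with equalised channel sums. Results are log-two fold changes in thermal stability compared with solvent controls, from duplicates.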

Amino acid sequences for entries named in this document (tags omitted). A change or cut given only in a name is not applied to a line headed by its entry.
UniProt Q7L211: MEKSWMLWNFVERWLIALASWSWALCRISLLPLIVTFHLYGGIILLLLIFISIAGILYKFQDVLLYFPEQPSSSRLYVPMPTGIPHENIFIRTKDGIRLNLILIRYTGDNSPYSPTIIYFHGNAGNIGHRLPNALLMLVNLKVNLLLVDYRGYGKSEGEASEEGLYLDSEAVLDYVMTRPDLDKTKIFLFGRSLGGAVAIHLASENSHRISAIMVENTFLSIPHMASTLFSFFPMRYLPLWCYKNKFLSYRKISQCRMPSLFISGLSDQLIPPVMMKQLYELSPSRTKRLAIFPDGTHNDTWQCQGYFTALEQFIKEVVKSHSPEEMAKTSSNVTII
UniProt P28288: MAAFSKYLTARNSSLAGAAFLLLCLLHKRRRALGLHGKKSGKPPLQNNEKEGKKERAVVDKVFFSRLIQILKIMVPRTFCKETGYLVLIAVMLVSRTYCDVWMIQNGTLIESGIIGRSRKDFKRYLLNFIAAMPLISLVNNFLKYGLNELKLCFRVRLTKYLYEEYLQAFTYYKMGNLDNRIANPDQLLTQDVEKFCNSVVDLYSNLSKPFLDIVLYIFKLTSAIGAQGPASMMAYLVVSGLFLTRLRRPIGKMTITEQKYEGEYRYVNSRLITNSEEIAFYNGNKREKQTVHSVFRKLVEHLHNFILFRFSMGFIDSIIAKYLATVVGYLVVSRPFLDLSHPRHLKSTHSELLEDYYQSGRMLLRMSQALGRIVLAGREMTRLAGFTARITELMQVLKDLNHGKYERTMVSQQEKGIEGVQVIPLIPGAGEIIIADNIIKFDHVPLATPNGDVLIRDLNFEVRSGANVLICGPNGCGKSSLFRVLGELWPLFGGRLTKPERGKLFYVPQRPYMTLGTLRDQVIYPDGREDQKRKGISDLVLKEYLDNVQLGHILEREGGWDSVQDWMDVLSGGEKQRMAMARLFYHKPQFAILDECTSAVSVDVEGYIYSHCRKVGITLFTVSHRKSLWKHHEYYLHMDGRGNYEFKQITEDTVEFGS
UniProt P16219: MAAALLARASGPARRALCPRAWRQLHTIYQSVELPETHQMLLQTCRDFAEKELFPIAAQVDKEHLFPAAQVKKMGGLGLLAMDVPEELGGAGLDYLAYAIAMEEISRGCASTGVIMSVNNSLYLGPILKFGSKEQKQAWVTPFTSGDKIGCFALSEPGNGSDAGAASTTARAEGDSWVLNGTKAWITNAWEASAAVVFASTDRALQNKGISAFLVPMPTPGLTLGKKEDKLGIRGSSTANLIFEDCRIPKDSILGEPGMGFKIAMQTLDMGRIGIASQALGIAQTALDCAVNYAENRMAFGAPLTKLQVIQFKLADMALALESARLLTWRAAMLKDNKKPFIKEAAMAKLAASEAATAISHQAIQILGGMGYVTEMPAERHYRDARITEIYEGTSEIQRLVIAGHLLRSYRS
UniProt P24752: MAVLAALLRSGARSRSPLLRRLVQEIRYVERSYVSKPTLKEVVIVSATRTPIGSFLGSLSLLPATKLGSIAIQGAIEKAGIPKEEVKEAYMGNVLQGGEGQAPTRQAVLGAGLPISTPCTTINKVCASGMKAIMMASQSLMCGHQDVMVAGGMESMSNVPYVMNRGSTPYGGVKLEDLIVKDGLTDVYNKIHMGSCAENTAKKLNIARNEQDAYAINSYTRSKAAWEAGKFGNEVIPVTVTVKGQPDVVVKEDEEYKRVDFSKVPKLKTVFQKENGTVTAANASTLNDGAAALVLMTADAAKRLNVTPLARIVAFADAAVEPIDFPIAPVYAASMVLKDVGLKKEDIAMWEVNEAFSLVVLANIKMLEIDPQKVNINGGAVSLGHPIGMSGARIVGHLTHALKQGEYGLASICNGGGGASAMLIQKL
UniProt Q9NUT2: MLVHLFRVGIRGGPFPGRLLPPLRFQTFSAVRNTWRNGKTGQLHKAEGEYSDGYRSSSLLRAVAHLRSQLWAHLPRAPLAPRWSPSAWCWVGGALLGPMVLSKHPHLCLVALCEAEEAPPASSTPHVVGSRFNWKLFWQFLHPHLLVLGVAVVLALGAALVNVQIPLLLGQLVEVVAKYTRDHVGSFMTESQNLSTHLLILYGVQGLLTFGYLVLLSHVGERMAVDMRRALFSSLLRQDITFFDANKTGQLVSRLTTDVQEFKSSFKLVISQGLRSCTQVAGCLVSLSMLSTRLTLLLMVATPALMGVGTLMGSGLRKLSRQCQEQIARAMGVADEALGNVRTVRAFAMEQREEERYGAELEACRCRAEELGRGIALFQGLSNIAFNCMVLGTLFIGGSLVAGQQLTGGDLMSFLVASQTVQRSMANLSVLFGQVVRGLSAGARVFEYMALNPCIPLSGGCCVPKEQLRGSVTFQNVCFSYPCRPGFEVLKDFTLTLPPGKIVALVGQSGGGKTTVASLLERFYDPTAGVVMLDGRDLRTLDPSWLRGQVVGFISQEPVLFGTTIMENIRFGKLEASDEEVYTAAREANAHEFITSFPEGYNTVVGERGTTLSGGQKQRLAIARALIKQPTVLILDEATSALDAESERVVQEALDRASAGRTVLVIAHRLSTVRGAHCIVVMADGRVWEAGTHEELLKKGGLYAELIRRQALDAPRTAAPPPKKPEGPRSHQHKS
UniProt Q9ULW3: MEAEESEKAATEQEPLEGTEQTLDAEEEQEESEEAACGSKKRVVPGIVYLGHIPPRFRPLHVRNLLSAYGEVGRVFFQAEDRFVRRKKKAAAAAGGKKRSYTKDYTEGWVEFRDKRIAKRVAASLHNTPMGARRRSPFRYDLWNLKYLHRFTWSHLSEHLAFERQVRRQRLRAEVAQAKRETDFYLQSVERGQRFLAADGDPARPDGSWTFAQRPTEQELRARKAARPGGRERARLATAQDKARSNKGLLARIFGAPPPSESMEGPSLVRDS
UniProt O75027: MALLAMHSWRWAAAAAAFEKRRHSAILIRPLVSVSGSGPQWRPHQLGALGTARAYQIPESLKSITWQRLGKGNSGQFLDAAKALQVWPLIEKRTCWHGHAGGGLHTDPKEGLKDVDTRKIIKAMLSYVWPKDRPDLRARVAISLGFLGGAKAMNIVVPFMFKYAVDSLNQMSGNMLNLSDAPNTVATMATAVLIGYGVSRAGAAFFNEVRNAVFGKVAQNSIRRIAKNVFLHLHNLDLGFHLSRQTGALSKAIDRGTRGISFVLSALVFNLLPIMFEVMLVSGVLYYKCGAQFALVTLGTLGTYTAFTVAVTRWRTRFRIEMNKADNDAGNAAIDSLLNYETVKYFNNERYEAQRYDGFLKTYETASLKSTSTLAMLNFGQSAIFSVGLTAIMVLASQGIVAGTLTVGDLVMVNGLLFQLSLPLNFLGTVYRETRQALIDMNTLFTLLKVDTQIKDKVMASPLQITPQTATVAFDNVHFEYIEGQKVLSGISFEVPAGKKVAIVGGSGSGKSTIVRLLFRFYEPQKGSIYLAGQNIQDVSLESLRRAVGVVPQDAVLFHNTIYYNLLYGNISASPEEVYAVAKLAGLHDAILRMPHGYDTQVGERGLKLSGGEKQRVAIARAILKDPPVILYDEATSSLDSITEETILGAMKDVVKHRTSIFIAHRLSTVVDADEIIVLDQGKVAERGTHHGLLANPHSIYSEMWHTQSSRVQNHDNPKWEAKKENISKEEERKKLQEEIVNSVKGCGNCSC
UniProt P11310: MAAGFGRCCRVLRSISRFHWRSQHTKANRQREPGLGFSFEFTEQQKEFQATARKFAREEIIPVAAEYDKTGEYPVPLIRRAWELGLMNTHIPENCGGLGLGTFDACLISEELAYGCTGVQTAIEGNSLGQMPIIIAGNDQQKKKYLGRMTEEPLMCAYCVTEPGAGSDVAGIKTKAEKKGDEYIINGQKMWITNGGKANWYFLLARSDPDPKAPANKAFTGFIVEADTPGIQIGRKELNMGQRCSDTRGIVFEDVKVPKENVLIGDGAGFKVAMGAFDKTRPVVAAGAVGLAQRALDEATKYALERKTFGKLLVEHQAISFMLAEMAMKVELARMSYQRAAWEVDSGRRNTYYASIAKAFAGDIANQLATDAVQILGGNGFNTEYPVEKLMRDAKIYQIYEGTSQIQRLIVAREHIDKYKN
UniProt P21399: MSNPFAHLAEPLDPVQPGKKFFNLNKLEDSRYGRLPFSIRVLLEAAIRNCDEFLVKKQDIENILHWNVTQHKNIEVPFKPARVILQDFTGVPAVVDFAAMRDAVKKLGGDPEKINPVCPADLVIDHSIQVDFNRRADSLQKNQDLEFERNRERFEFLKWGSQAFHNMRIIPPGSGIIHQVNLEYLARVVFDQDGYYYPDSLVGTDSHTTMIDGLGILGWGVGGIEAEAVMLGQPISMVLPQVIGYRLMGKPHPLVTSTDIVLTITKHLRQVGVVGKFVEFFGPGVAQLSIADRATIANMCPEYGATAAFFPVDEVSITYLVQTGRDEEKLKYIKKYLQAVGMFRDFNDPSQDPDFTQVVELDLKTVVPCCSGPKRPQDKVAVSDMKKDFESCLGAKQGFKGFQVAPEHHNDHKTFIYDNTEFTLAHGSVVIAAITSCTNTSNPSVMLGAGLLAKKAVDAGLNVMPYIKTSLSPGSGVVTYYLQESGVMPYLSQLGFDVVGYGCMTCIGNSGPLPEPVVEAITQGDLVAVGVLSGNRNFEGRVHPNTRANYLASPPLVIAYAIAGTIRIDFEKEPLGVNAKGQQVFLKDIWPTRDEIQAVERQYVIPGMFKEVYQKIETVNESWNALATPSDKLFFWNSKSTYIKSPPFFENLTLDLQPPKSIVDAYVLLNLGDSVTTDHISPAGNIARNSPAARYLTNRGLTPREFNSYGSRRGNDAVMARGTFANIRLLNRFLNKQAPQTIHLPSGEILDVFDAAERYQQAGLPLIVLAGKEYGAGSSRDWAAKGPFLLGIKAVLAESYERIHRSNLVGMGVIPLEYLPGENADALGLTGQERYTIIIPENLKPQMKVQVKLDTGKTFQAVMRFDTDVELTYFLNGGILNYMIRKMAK
UniProt Q8WTS1: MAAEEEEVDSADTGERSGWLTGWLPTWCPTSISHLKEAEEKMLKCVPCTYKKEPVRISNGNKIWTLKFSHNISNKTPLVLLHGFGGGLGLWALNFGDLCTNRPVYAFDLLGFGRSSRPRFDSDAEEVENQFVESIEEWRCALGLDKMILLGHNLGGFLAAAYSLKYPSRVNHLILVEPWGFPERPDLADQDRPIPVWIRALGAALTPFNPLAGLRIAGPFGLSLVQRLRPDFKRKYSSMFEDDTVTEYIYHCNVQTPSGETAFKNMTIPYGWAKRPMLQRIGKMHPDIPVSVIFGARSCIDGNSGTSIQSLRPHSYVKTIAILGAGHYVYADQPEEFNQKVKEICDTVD
UniProt Q9NPJ3: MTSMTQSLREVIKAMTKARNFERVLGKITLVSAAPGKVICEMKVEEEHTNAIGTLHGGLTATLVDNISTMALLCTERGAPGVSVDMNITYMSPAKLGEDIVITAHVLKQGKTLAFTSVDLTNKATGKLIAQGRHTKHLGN
UniProt Q8N2K0: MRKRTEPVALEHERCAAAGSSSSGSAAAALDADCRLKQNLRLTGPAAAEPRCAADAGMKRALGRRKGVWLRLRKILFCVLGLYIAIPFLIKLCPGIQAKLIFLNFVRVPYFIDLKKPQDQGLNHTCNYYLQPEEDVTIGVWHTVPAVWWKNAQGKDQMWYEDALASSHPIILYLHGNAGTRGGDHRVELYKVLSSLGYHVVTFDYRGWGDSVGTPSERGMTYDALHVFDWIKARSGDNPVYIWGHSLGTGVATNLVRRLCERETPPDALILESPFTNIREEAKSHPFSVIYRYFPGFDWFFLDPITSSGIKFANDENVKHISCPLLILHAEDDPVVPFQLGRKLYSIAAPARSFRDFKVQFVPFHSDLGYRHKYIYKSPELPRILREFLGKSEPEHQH
UniProt Q9H845: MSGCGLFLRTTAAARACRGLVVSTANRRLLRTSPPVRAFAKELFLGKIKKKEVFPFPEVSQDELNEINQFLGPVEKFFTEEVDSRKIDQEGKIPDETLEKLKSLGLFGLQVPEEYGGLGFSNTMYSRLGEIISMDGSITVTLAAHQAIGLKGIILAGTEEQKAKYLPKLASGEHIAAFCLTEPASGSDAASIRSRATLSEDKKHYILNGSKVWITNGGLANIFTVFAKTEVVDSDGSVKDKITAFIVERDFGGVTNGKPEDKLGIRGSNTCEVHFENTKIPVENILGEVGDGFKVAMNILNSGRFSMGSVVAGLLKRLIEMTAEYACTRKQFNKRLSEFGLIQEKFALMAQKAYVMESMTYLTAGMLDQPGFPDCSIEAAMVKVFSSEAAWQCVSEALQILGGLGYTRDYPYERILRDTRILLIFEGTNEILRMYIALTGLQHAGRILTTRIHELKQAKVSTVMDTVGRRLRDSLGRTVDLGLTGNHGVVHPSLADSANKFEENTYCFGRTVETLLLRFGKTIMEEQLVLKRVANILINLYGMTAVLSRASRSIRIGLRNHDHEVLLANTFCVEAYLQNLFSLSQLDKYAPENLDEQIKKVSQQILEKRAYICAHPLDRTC

pictilisib = compound: CS(=O)(=O)N1CCN(Cc2cc3nc(-c4cccc5[nH]ncc45)nc(N4CCOCC4)c3s2)CC1 [pictilisib]
Method in brief: as §1

crizotinib = compound: C[C@@H](Oc1cc(-c2cnn(C3CCNCC3)c2)cnc1N)c1c(Cl)ccc(F)c1Cl [crizotinib]
Method in brief: as §1

[1] = compound: C[C@H](C1=CC=C(C=C1)C(=O)NC2=C3C=CNC3=NC=C2)N
Method in brief: as §1

duvelisib = compound: C[C@H](Nc1ncnc2nc[nH]c12)c1cc2cccc(Cl)c2c(=O)n1-c1ccccc1 [duvelisib]
Method in brief: as §1

gandotinib = compound: Cc1cc(Nc2cc(CN3CCOCC3)c3nc(C)c(Cc4ccc(Cl)cc4F)n3n2)n[nH]1 [gandotinib]
Method in brief: as §1

tozasertib = compound: Cc1cc(Nc2cc(N3CCN(C)CC3)nc(Sc3ccc(NC(=O)C4CC4)cc3)n2)n[nH]1 [tozasertib]
Method in brief: as §1

doramapimod = compound: Cc1ccc(-n2nc(C(C)(C)C)cc2NC(=O)Nc2ccc(OCCN3CCOCC3)c3ccccc23)cc1 [doramapimod]
Method in brief: as §1

bafetinib = compound: Cc1ccc(NC(=O)c2ccc(CN3CC[C@H](N(C)C)C3)c(C(F)(F)F)c2)cc1Nc1nccc(-c2cncnc2)n1 [bafetinib]
Method in brief: as §1

[2] = compound: Cc1cccc(CC(=O)N2CCc3c2ccc(-c2cn(C)c4ncnc(N)c24)c3F)n1
Method in brief: as §1

nilotinib = compound: Cc1cn(-c2cc(NC(=O)c3ccc(C)c(Nc4nccc(-c5cccnc5)n4)c3)cc(C(F)(F)F)c2)cn1 [nilotinib]
Method in brief: as §1

[3] = compound: Cc1nc(Nc2n[nH]c3c2CN(C(=O)N[C@H](CN(C)C)c2ccccc2)C3(C)C)c2sccc2n1
Method in brief: as §1

dasatinib = compound: Cc1nc(Nc2ncc(C(=O)Nc3c(C)cccc3Cl)s2)cc(N2CCN(CCO)CC2)n1 [dasatinib]
Method in brief: as §1

[4] = compound: Cc1ncc(-c2ccnc(Nc3ccc(S(C)(=O)=O)cc3)n2)n1C(C)C
Method in brief: as §1

[5] = compound: Cn1cc(-c2ccc3c(c2)CCN3C(=O)Cc2cccc(C(F)(F)F)c2)c2c(N)ncnc21
Method in brief: as §1

quisinostat = compound: Cn1cc(CNCC2CCN(c3ncc(C(=O)NO)cn3)CC2)c2ccccc21 [quisinostat]
Method in brief: as §1

tipifarnib = compound: Cn1cncc1[C@@](N)(c1ccc(Cl)cc1)c1ccc2c(c1)c(-c1cccc(Cl)c1)cc(=O)n2C [tipifarnib]
Method in brief: as §1

[6] = compound: NC(=O)Nc1cc(-c2cccc(F)c2)sc1C(=O)N[C@H]1CCCNC1
Method in brief: as §1

[7] = compound: NC(=O)c1cnc(N[C@@H]2CCCC[C@@H]2N)nc1Nc1cccc(-n2nccn2)c1
Method in brief: as §1

[8] = compound: NC1(c2ccc(-c3nc4ccn5c(=O)[nH]nc5c4cc3-c3ccccc3)cc2)CCC1
Method in brief: as §1

Row | Target | log2 fold change (lapatinib) | log2 fold change (pictilisib) | log2 fold change (crizotinib) | log2 fold change [1] | log2 fold change (duvelisib) | log2 fold change (gandotinib) | log2 fold change (tozasertib) | log2 fold change (doramapimod) | log2 fold change (bafetinib) | log2 fold change [2] | log2 fold change (nilotinib) | log2 fold change [3] | log2 fold change (dasatinib) | log2 fold change [4] | log2 fold change [5] | log2 fold change (quisinostat) | log2 fold change (tipifarnib) | log2 fold change [6] | log2 fold change [7] | log2 fold change [8]
1 | AAAS (UniProt Q9NRG9) | inactive: -0.005 | inactive: -0.021 | inactive: -0.044 | inactive: 0.068 | inactive: -0.008 | inactive: -0.024 | inactive: -0.021 | inactive: -0.005 | inactive: 0.006 | inactive: -0.012 | inactive: 0.032 | inactive: -0.031 | inactive: -0.055 | inactive: -0.047 | inactive: 0.032 | inactive: -0.013 | inactive: -0.037 | inactive: 0.029 | inactive: -0.008 | inactive: 0.025
2 | ABHD13 (UniProt Q7L211) | inactive: -0.059 | inactive: 0.049 | inactive: 0.197 | active: -0.593 | inactive: 0 | inactive: 0.193 | inactive: -0.044 | inactive: -0.104 | inactive: -0.197 | inactive: 0.184 | inactive: 0.152 | inactive: -0.186 | inactive: -0.177 | inactive: -0.069 | inactive: 0.21 | inactive: 0.121 | inactive: -0.233 | inactive: -0.029 | inactive: 0.037 | 
3 | ABCD3 (UniProt P28288) | inactive: 0.179 | inactive: -0.019 | inactive: -0.063 | inactive: 0.014 | inactive: 0.019 | inactive: 0.079 | inactive: 0.098 | inactive: -0.002 | inactive: 0.027 | inactive: -0.006 | inactive: 0.019 | inactive: 0.093 | inactive: -0.063 | inactive: -0.184 | inactive: 0.031 | inactive: 0.074 | inactive: -0.025 | inactive: 0.016 | inactive: -0.054 | inactive: 0.087
4 | ACADS (UniProt P16219) | inactive: -0.004 | inactive: -0.018 | inactive: -0.027 | inactive: -0.026 | inactive: -0.003 | inactive: 0.016 | inactive: -0.013 | inactive: 0.008 | inactive: 0.037 | inactive: 0.034 | active: 0.278 | inactive: -0.04 | inactive: -0.002 | inactive: -0.025 | inactive: 0.033 | inactive: -0.009 | inactive: -0.018 | inactive: 0.032 | inactive: 0.01 | inactive: 0.017
5 | ACIN1 (UniProt E7EQT4) | inactive: -0.001 | inactive: -0.047 | inactive: -0.1 | active: -0.28 | inactive: -0.021 | inactive: 0.047 | inactive: 0 | inactive: 0.068 | inactive: -0.063 | inactive: 0.032 | inactive: 0.033 | inactive: -0.032 | inactive: 0.043 | inactive: 0.006 | inactive: 0.195 | inactive: -0.087 | inactive: -0.021 | inactive: -0.072 | inactive: 0.041 | inactive: -0.039
6 | ACAT1 (UniProt P24752) | inactive: -0.024 | inactive: -0.013 | inactive: 0.029 | inactive: -0.018 | inactive: -0.016 | inactive: 0.03 | inactive: -0.009 | inactive: -0.005 | inactive: 0.026 | inactive: 0.008 | inactive: 0.028 | inactive: -0.021 | inactive: 0.015 | inactive: 0.019 | inactive: -0.029 | inactive: -0.006 | inactive: 0.044 | inactive: -0.001 | inactive: -0.005 | inactive: 0.021
7 | ABCB8 (UniProt Q9NUT2) | inactive: -0.003 | inactive: -0.044 | inactive: -0.063 | inactive: -0.034 | inactive: 0.048 | inactive: -0.066 | inactive: 0.029 | inactive: 0.046 | inactive: -0.033 | inactive: 0.053 | inactive: 0 | inactive: -0.213 | inactive: -0.076 | inactive: -0.043 | inactive: 0.035 | inactive: -0.021 | inactive: -0.046 | inactive: 0.063 | inactive: -0.013 | inactive: 0.013
8 | ABT1 (UniProt Q9ULW3) | inactive: 0.032 | inactive: -0.068 | inactive: -0.126 | inactive: -0.017 | inactive: 0.028 | inactive: -0.016 | inactive: 0.048 | inactive: 0.015 | inactive: 0.05 | inactive: 0.069 | inactive: 0.019 | inactive: -0.025 | inactive: 0.018 | inactive: 0.095 | inactive: -0.006 | inactive: -0.147 | inactive: 0.042 | inactive: 0.075 | inactive: 0.044 | inactive: -0.026
9 | ABCB7 isoform 2 (UniProt O75027) | inactive: -0.074 | inactive: -0.041 | inactive: 0 | inactive: -0.086 | inactive: 0.002 | inactive: -0.244 | inactive: 0.044 | inactive: -0.03 | inactive: 0 | inactive: 0.114 | inactive: -0.003 | inactive: -0.021 | inactive: -0.019 | inactive: 0.023 | inactive: 0.017 | inactive: -0.01 | inactive: -0.05 | inactive: -0.002 | inactive: 0.026 | inactive: -0.03
10 | ABCC1 (UniProt P33527) | inactive: -0.048 | inactive: 0.015 | inactive: -0.034 | inactive: -0.036 | inactive: -0.002 | inactive: 0.022 | inactive: -0.033 | inactive: -0.045 | inactive: -0.056 | inactive: 0.049 | inactive: -0.006 | inactive: -0.025 | inactive: 0.009 | inactive: 0.006 | inactive: -0.006 | inactive: -0.016 | inactive: 0 | inactive: 0.005 | inactive: 0.009 | inactive: -0.006
11 | ACADM isoform 2 (UniProt P11310) | inactive: -0.007 | inactive: -0.009 | inactive: -0.042 | inactive: -0.007 | inactive: -0.007 | inactive: 0.029 | inactive: 0.029 | inactive: -0.03 | inactive: 0.024 | inactive: -0.01 | inactive: -0.031 | inactive: -0.008 | inactive: -0.041 | inactive: -0.009 | inactive: 0.001 | inactive: 0.009 | inactive: -0.021 | inactive: -0.027 | inactive: -0.033 | inactive: -0.091
12 | ACO1 (UniProt P21399) | inactive: -0.006 | inactive: -0.015 | inactive: 0.038 | inactive: -0.042 | inactive: -0.004 | inactive: -0.017 | inactive: 0.037 | inactive: 0.008 | inactive: 0.032 | inactive: -0.012 | inactive: 0.005 | inactive: -0.015 | inactive: 0.017 | inactive: -0.013 | inactive: 0.026 | inactive: 0.044 | inactive: 0.009 | inactive: -0.011 | inactive: -0.002 | inactive: 0.025
13 | ABHD5 (UniProt Q8WTS1) | inactive: -0.086 | inactive: 0.011 | inactive: -0.052 | inactive: 0.021 | inactive: -0.012 | inactive: -0.062 | inactive: 0.043 | inactive: -0.042 | inactive: 0.037 | inactive: -0.006 | inactive: -0.153 | inactive: 0.037 | inactive: 0 | inactive: -0.093 | inactive: -0.044 | inactive: -0.001 | inactive: -0.17 | inactive: 0.002 | inactive: -0.038 | inactive: 0.018
14 | ACOT13 (UniProt Q9NPJ3) | inactive: -0.024 | inactive: -0.017 | inactive: 0.018 | inactive: 0.02 | inactive: 0.022 | inactive: 0.001 | inactive: -0.003 | inactive: 0.016 | inactive: 0.055 | inactive: -0.045 | inactive: 0.069 | inactive: -0.011 | inactive: 0.015 | inactive: 0.028 | inactive: 0.044 | inactive: -0.023 | inactive: 0.019 | inactive: 0.005 | inactive: -0.04 | inactive: -0.013
15 | ABHD12 isoform 2 (UniProt Q8N2K0) | inactive: -0.006 | inactive: -0.069 | inactive: -0.04 | inactive: 0.078 | inactive: -0.057 | inactive: -0.095 | inactive: 0.06 | inactive: 0.04 | inactive: 0.062 | inactive: -0.063 | inactive: 0.005 | inactive: -0.004 | inactive: 0.028 | inactive: 0.058 | inactive: -0.068 | inactive: 0.044 | inactive: -0.077 | inactive: -0.025 | inactive: -0.02 | inactive: 0.019
16 | ACAD9 (UniProt Q9H845) | inactive: -0.037 | inactive: -0.015 | inactive: -0.031 | inactive: -0.033 | inactive: 0.081 | inactive: 0.083 | inactive: -0.006 | inactive: 0.065 | inactive: -0.041 | inactive: 0.035 | inactive: 0.026 | inactive: -0.019 | inactive: 0.102 | inactive: -0.006 | inactive: 0.051 | inactive: 0.001 | inactive: 0.051 | inactive: 0 | inactive: 0 | inactive: 0.012

Complete entries from above. Values in the order: log2 fold change (lapatinib) | log2 fold change (pictilisib) | log2 fold change (crizotinib) | log2 fold change [1] | log2 fold change (duvelisib) | log2 fold change (gandotinib) | log2 fold change (tozasertib) | log2 fold change (doramapimod) | log2 fold change (bafetinib) | log2 fold change [2] | log2 fold change (nilotinib) | log2 fold change [3] | log2 fold change (dasatinib) | log2 fold change [4] | log2 fold change [5] | log2 fold change (quisinostat) | log2 fold change (tipifarnib) | log2 fold change [6] | log2 fold change [7] | log2 fold change [8]
ABCD3 (UniProt P28288) as listed: inactive: 0.179 | inactive: -0.019 | inactive: -0.063 | inactive: 0.014 | inactive: 0.019 | inactive: 0.079 | inactive: 0.098 | inactive: -0.002 | inactive: 0.027 | inactive: -0.006 | inactive: 0.019 | inactive: 0.093 | inactive: -0.063 | inactive: -0.184 | inactive: 0.031 | inactive: 0.074 | inactive: -0.025 | inactive: 0.016 | inactive: -0.054 | inactive: 0.087
ABHD5 (UniProt Q8WTS1) as listed: inactive: -0.086 | inactive: 0.011 | inactive: -0.052 | inactive: 0.021 | inactive: -0.012 | inactive: -0.062 | inactive: 0.043 | inactive: -0.042 | inactive: 0.037 | inactive: -0.006 | inactive: -0.153 | inactive: 0.037 | inactive: 0 | inactive: -0.093 | inactive: -0.044 | inactive: -0.001 | inactive: -0.17 | inactive: 0.002 | inactive: -0.038 | inactive: 0.018
